# Test results taken from patent US20200046856A1, “METHODS FOR IDENTIFYING MBLAC1-DEPENDENT MOLECULAR NETWORKS” (Florida Atlantic University Board of Trustees, priority 2018, published 2020).
# Entries after “also recorded” stand apart in the source; their conditions may differ. At least one compound was matched to its structure with a doubt left.
# Columns and labels:
# [1] = system: MBLAC1 WT and MBLAC1 KO mice; experiment: Effect of repeated Cef on cocaine-induced locomotion (open field); assay type: in vivo, mouse; details: cocaine 10 mg/kg; first 30 min of 60 min session; saline pretreated
# Experimental: Animals: All mice were used in accordance with protocols approved by the Florida Atlantic University Institutional Animal Care and Use Committee. Mice were group-housed on a 12 h/12 h light/dark cycle and given ad libitum access to food and water. Breeding was accomplished with mating of heterozygous males with heterozygous females. Male and female mice 11-13 weeks old at the start of the experiment were used in testing the effects of repeated ceftriaxone on response to cocaine in the open field assay. Data from males and females were combined.
# Repeated ceftriaxone treatment/acute cocaine administration: MBLAC1 wild-type (WT, MBLAC1^+/+) and knockout mice (MBLAC1^−/−) were used in this experiment. Mice were injected IP once daily for 10 days with 200 mg/kg ceftriaxone (CEF) or saline. […] Locomotor activity was evaluated by photocells in the X, Y and Z dimensions. Horizontal beam breaks, vertical beam breaks, and repetitive movements were recorded and measures, including distance traveled, vertical rearing and stereotypic counts, were calculated. Data were analyzed in 5 min time bins within session, and for the first 30 min following cocaine injection. Data were analyzed by two-way ANOVA repeated measures, with time bin as the repeated measure, or by two-way ANOVA for 30 min cumulated data. […]
# [2] = system: MBLAC1 WT and HOM (Mblac1−/−) mice; experiment: Cocaine sensitization, repeated cocaine, open field activity; assay type: in vivo, mouse; details: 60 min
structure (smiles),measurement,setting,value
COC(=O)[C@H]1[C@@H](OC(=O)c2ccccc2)C[C@@H]2CC[C@H]1N2C [cocaine],"Total ambulatory distance in the open field vs saline, MBLAC1 WT and MBLAC1 KO mice",[1],increase in total ambulatory distance; also recorded: pronounced locomotor activation
same,"Effect on open field activity vs saline, MBLAC1 WT mice, first day of cocaine",[2]; cocaine 10 mg/kg IP,not significant
same,"Total ambulatory distance in the open field vs saline, MBLAC1 HOM mice, first day of cocaine",[2]; cocaine 10 mg/kg IP,increase in total ambulatory distance
same,"Open field activity after single injection following two-week abstinence, WT and HOM mice",[2]; cocaine 10 mg/kg after 5 daily injections and two weeks abstinence,increased open field activity in both WT and HOM mice
